PubChem BioAssay AID1259267 | Sanger Institute, 2017
Assay: 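Kinase and colorectal-mutated gene knock-downs lethal to GP5D cells alone or with drugs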 (primary screen). Cells: human GP5D colorectal cancer cells. Reagents: siRNA pool against human genes. Challenge: anchor drugs at low dose: BYL719 1 µM, cetuximab 5 µg/ml, trametinib 10 nM, or DMSO vehicle. Measured: 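Mean replicate viability versus non-targeting pool, given as knock-down-alone robust z-score, DMSO fraction, and synergy with low-dose BYL719, cetuximab or trametinib (1 µM, 5 µg/ml, 10 nM)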. Scale: robust z-score, knock-down alone and viability with DMSO: higher = more viable cells; synergy score with trametinib: higher = stronger synthetic lethal synergy with drug. Active means: 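a robust z-score below -3 for the knock-down by itself makes a gene active, i.e. essential alone; synergy scores are ignored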. Meaning of the calls: active = essential alone; inactive = not essential.
Here is a random part of 794 reagents. Of all reagents, 9 (1.1%) got an active call. 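Viability capped at 1; calls reflect loss of viability from knock-down alone, not synergy with drugs.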 A number with no mark means an inactive call. Further read-outs or replicates are left out here. The record does not give: the amount of reagent, the time to read-out.

no.	Gene	robust z-score, knock-down alone	viability with DMSO (fraction of control)	synergy score with trametinib
1	CKMT2	0.817	1	-0.163
2	GRK7	0.439	0.92	-0.0188
3	ITK	0.817	1	0.0131
4	DAPK3	-0.523	0.716	-0.0968
5	UHMK1	-0.174	0.79	0.063
6	CDK7	0.817	1	0.133
7	MAP2K6	0.817	1	-0.197
8	TBX3	0.817	1	-0.07
9	RNASEL	0.817	1	0.104
10	PAPSS2	-1.1	0.593	0.163
11	MARK3	0.0841	0.845	0.325
12	STRADB	-1.01	0.613	-0.349
13	AKT3	0.0968	0.847	0.353
14	MARK1	0.188	0.867	0.219
15	PTK2	0.817	1	0.152
16	BRSK1	-0.0389	0.819	0.0699
17	MAPK4	0.817	1	0.376
18	CAMK2N1	-3.38 (active)	0.11	-0.0984
19	CDK16	0.449	0.922	0.318
20	MAPKAPK5	0.16	0.861	0.0896
21	ALPK2	0.817	1	-0.0394
22	TSSK1B	0.341	0.899	-0.0791
23	PIK3CB	0.661	0.967	-0.139
24	DGKG	0.817	1	-0.0157
25	STKLD1	-0.554	0.709	0.00175
26	STK32A	0.817	1	-0.197
27	GATA3	-0.315	0.76	0.147
28	NRBP1	0.817	1	0.000282
29	STK32C	0.817	1	0.0484
30	EPHA6	-1.52	0.506	0.179
31	PLK1	-3 (active)	0.191	-0.00768
32	PLK3	-1.08	0.597	-0.0611
33	MAP3K7	-1.42	0.525	0.138
34	CDKN1C	0.38	0.907	-0.0413
35	IRAK4	-0.725	0.673	-0.35
36	PHKG2	0.00901	0.829	-0.178
37	CPNE3	0.817	1	-0.092
38	CDKL4	-0.654	0.688	0.00387
39	MAP3K1	0.817	1	0.267
40	MET	0.817	1	0.0644
41	AK7	-0.317	0.76	-0.364
42	PIK3CG	-1.02	0.61	0.114
43	HUS1	-0.249	0.774	0.26
44	NF1	0.688	0.973	0.279
45	ROR1	0.0324	0.834	0.0858
46	CSNK1G3	0.612	0.957	0.0727
47	BUB1B	0.686	0.972	-0.0272
48	CLK3	0.463	0.925	0.309
49	CSK	0.817	1	-0.197
50	IP6K2	-2.09	0.383	-0.218
